Assay results published in patent US20220251074A1, “HERBICIDAL AMIDES” (BASF SE, priority 2019, published 2022).
Some results were stated once for a whole list of compounds, not compound by compound.

How the values were obtained:
Assay in all cases: greenhouse post-emergence herbicidal test
Settings in all cases: post-emergence method, application rate 500 g/ha, scale from 0 to 100
[1] = tested on: AMARE; type: in vivo, Amaranthus retroflexus
Description: (§1) The culture containers used were plastic flowerpots containing loamy sand with approximately 3.0% of humus as the substrate. The seeds of the test plants were sown separately for each species.
(§2) For the post-emergence treatment, the test plants were first grown to a height of 3 to 15 cm, depending on the plant habit, and only then treated with the active ingredients which had been suspended or emulsified in water. For this purpose, the test plants were either sown directly and grown in the same containers, or they were first grown separately as seedlings and transplanted into the test containers a few days prior to treatment.
(§3) Depending on the species, the plants were kept at 10-25° C. or 20-35° C., respectively. The test period extended over 2 to 4 weeks. During this time, the plants were tended, and their response to the individual treatments was evaluated.
(§4) Evaluation was carried out using a scale from 0 to 100. 100 means no emergence of the plants, or complete destruction of at least the aerial moieties, and 0 means no damage, or normal course of growth. A good herbicidal activity is given at values of at least 80 and a very good herbicidal activity is given at values of at least 90.
(§5) The plants used in the greenhouse experiments were of the following species: […]

[2] = tested on: ABUTH; type: in vivo, Abutilon theophrasti
Description: as §1, §2, §3, §4, §5

[3] = tested on: ECHCG; type: in vivo, Echinocloa crus-galli
Description: as §1, §2, §3, §4, §5

[4] = tested on: SETVI; type: in vivo, Setaria viridis
Description: as §1, §2, §3, §4, §5

## CC(=CC(=O)NCC(F)(F)Br)CC1OCC(CC2OC2C(C)C(C)O)C2OC(C)(C)OC12 (stereo not drawn) [compound 16]
[1]
  herbicidal activity against AMARE: very good herbicidal activity (a very good herbicidal activity is given at values of at least 90)
[2]
  herbicidal activity against ABUTH: very good herbicidal activity (a very good herbicidal activity is given at values of at least 90)
[3]
  herbicidal activity against ECHCG: very good herbicidal activity (a very good herbicidal activity is given at values of at least 90)
[4]
  herbicidal activity against SETVI: very good herbicidal activity (a very good herbicidal activity is given at values of at least 90)

## C/C(=C\C(=O)NCC#CC(C)(C)C)C[C@@H]1OC[C@H](C[C@@H]2O[C@H]2[C@@H](C)[C@H](C)O)[C@@H](O)[C@H]1O [compound 29]
[1]
  herbicidal activity against AMARE: very good herbicidal activity (a very good herbicidal activity is given at values of at least 90)
[2]
  herbicidal activity against ABUTH: very good herbicidal activity (a very good herbicidal activity is given at values of at least 90)
[3]
  herbicidal activity against ECHCG: good herbicidal activity (A good herbicidal activity is given at values of at least 80)
[4]
  herbicidal activity against SETVI: very good herbicidal activity (a very good herbicidal activity is given at values of at least 90)

## C/C(=C\C(=O)NCC(C)(F)F)C[C@@H]1OC[C@H](C[C@@H]2O[C@H]2[C@@H](C)[C@H](C)O)[C@@H](O)[C@H]1O [compound 6]
[1]
  herbicidal activity against AMARE: very good herbicidal activity (a very good herbicidal activity is given at values of at least 90)
[2]
  herbicidal activity against ABUTH: very good herbicidal activity (a very good herbicidal activity is given at values of at least 90)
[3]
  herbicidal activity against ECHCG: very good herbicidal activity (a very good herbicidal activity is given at values of at least 90)
[4]
  herbicidal activity against SETVI: very good herbicidal activity (a very good herbicidal activity is given at values of at least 90)

## C/C(=C\C(=O)NCC(F)(F)C(F)F)C[C@@H]1OC[C@H](C[C@@H]2O[C@H]2[C@@H](C)[C@H](C)O)[C@@H](O)[C@H]1O [compound 7]
[1]
  herbicidal activity against AMARE: very good herbicidal activity (a very good herbicidal activity is given at values of at least 90)
[2]
  herbicidal activity against ABUTH: very good herbicidal activity (a very good herbicidal activity is given at values of at least 90)
[3]
  herbicidal activity against ECHCG: very good herbicidal activity (a very good herbicidal activity is given at values of at least 90)
[4]
  herbicidal activity against SETVI: very good herbicidal activity (a very good herbicidal activity is given at values of at least 90)

## C#CCNC(=O)/C=C(\C)C[C@@H]1OC[C@H](C[C@@H]2O[C@H]2[C@@H](C)[C@H](C)O)[C@@H](O)[C@H]1O [compound 26, (E)-4-[(2S,3R,4R,5S)-3,4-dihydroxy-5-[[(2S,3S)-3-[(1S,2S)-2-hydroxy-1-methyl-propyl]oxiran-2-yl]methyl]tetrahydropyran-2-yl]-3-methyl-N-prop-2-ynyl-but-2-enamide]
[1]
  herbicidal activity against AMARE: very good herbicidal activity (a very good herbicidal activity is given at values of at least 90)
[2]
  herbicidal activity against ABUTH: very good herbicidal activity (a very good herbicidal activity is given at values of at least 90)
[3]
  herbicidal activity against ECHCG: very good herbicidal activity (a very good herbicidal activity is given at values of at least 90)
[4]
  herbicidal activity against SETVI: very good herbicidal activity (a very good herbicidal activity is given at values of at least 90)

## CC(=CC(=O)NCC(F)F)CC1OCC(CC2OC2C(C)C(C)O)C2OC(C)(C)OC12 (stereo not drawn) [compound 14]
[1]
  herbicidal activity against AMARE: very good herbicidal activity (a very good herbicidal activity is given at values of at least 90)
[2]
  herbicidal activity against ABUTH: very good herbicidal activity (a very good herbicidal activity is given at values of at least 90)
[3]
  herbicidal activity against ECHCG: very good herbicidal activity (a very good herbicidal activity is given at values of at least 90)
[4]
  herbicidal activity against SETVI: very good herbicidal activity (a very good herbicidal activity is given at values of at least 90)

## CC(=CC(=O)N1CCN(CC(F)(F)F)C1=O)CC1OCC(CC2OC2C(C)C(C)O)C2OC(C)(C)OC12 (stereo not drawn) [compound 40]
[1]
  herbicidal activity against AMARE: very good herbicidal activity (a very good herbicidal activity is given at values of at least 90)
[2]
  herbicidal activity against ABUTH: very good herbicidal activity (a very good herbicidal activity is given at values of at least 90)
[3]
  herbicidal activity against ECHCG: good herbicidal activity (A good herbicidal activity is given at values of at least 80)
[4]
  herbicidal activity against SETVI: very good herbicidal activity (a very good herbicidal activity is given at values of at least 90)

## C/C(=C\C(=O)NCCC(F)(F)F)C[C@@H]1OC[C@H](C[C@@H]2O[C@H]2[C@@H](C)[C@H](C)O)[C@@H](O)[C@H]1O [compound 5]
[1]
  herbicidal activity against AMARE: very good herbicidal activity (a very good herbicidal activity is given at values of at least 90)
[2]
  herbicidal activity against ABUTH: very good herbicidal activity (a very good herbicidal activity is given at values of at least 90)
[3]
  herbicidal activity against ECHCG: very good herbicidal activity (a very good herbicidal activity is given at values of at least 90)
[4]
  herbicidal activity against SETVI: very good herbicidal activity (a very good herbicidal activity is given at values of at least 90)

## C#CCNC(=O)C=C(C)CC1OCC(CC2OC2C(C)C(C)O)C2OC(CC)(CC)OC12 (stereo not drawn) [compound 32]
[1]
  herbicidal activity against AMARE: very good herbicidal activity (a very good herbicidal activity is given at values of at least 90)
[2]
  herbicidal activity against ABUTH: very good herbicidal activity (a very good herbicidal activity is given at values of at least 90)
[3]
  herbicidal activity against ECHCG: very good herbicidal activity (a very good herbicidal activity is given at values of at least 90)
[4]
  herbicidal activity against SETVI: very good herbicidal activity (a very good herbicidal activity is given at values of at least 90)

## CC(=O)C(C)C1OC1CC1COC(CC(C)=CC(=O)NCC(F)(F)F)C2OC(C)(C)OC12 (stereo not drawn) [compound 46]
[1]
  herbicidal activity against AMARE: very good herbicidal activity (a very good herbicidal activity is given at values of at least 90)
[2]
  herbicidal activity against ABUTH: very good herbicidal activity (a very good herbicidal activity is given at values of at least 90)
[3]
  herbicidal activity against ECHCG: very good herbicidal activity (a very good herbicidal activity is given at values of at least 90)
[4]
  herbicidal activity against SETVI: very good herbicidal activity (a very good herbicidal activity is given at values of at least 90)

## CC(=CC(=O)NCC(C)(F)F)CC1OCC(CC2OC2C(C)C(C)O)C2OC(C)(C)OC12 (stereo not drawn) [compound 17]
[1]
  herbicidal activity against AMARE: very good herbicidal activity (a very good herbicidal activity is given at values of at least 90)
[2]
  herbicidal activity against ABUTH: very good herbicidal activity (a very good herbicidal activity is given at values of at least 90)
[3]
  herbicidal activity against ECHCG: very good herbicidal activity (a very good herbicidal activity is given at values of at least 90)
[4]
  herbicidal activity against SETVI: very good herbicidal activity (a very good herbicidal activity is given at values of at least 90)

## C=C(Br)CNC(=O)C=C(C)CC1OCC(CC2OC2C(C)C(C)O)C2OC(C)(C)OC12 (stereo not drawn) [compound 25]
[1]
  herbicidal activity against AMARE: very good herbicidal activity (a very good herbicidal activity is given at values of at least 90)
[2]
  herbicidal activity against ABUTH: very good herbicidal activity (a very good herbicidal activity is given at values of at least 90)
[3]
  herbicidal activity against ECHCG: very good herbicidal activity (a very good herbicidal activity is given at values of at least 90)
[4]
  herbicidal activity against SETVI: very good herbicidal activity (a very good herbicidal activity is given at values of at least 90)

## C/C(=C\C(=O)NCCC(F)F)C[C@@H]1OC[C@H](C[C@@H]2O[C@H]2[C@@H](C)[C@H](C)O)[C@@H](O)[C@H]1O [compound 4]
[1]
  herbicidal activity against AMARE: very good herbicidal activity (a very good herbicidal activity is given at values of at least 90)
[2]
  herbicidal activity against ABUTH: very good herbicidal activity (a very good herbicidal activity is given at values of at least 90)
[3]
  herbicidal activity against ECHCG: very good herbicidal activity (a very good herbicidal activity is given at values of at least 90)
[4]
  herbicidal activity against SETVI: very good herbicidal activity (a very good herbicidal activity is given at values of at least 90)

## C=C(F)CNC(=O)C=C(C)CC1OCC(CC2OC2C(C)C(C)O)C2OC(C)(C)OC12 (stereo not drawn) [compound 23]
[1]
  herbicidal activity against AMARE: very good herbicidal activity (a very good herbicidal activity is given at values of at least 90)
[2]
  herbicidal activity against ABUTH: very good herbicidal activity (a very good herbicidal activity is given at values of at least 90)
[3]
  herbicidal activity against ECHCG: very good herbicidal activity (a very good herbicidal activity is given at values of at least 90)
[4]
  herbicidal activity against SETVI: very good herbicidal activity (a very good herbicidal activity is given at values of at least 90)

## CC(=CC(=O)NC(C)C(F)(F)F)CC1OCC(CC2OC2C(C)C(C)O)C2OC(C)(C)OC12 (stereo not drawn) [compound 18]
[1]
  herbicidal activity against AMARE: very good herbicidal activity (a very good herbicidal activity is given at values of at least 90)
[2]
  herbicidal activity against ABUTH: very good herbicidal activity (a very good herbicidal activity is given at values of at least 90)
[3]
  herbicidal activity against ECHCG: very good herbicidal activity (a very good herbicidal activity is given at values of at least 90)
[4]
  herbicidal activity against SETVI: very good herbicidal activity (a very good herbicidal activity is given at values of at least 90)
